# Laboratory results: article PMC7819943, “Rice protein-binding microarrays: a tool to detect cis-acting elements near promoter regions in rice”
# This is one part of the list.
# Biological target: T1, OsSMF1 (Oryza sativa, UniProt Q6ZLB0 1-436)
# T1 sequence: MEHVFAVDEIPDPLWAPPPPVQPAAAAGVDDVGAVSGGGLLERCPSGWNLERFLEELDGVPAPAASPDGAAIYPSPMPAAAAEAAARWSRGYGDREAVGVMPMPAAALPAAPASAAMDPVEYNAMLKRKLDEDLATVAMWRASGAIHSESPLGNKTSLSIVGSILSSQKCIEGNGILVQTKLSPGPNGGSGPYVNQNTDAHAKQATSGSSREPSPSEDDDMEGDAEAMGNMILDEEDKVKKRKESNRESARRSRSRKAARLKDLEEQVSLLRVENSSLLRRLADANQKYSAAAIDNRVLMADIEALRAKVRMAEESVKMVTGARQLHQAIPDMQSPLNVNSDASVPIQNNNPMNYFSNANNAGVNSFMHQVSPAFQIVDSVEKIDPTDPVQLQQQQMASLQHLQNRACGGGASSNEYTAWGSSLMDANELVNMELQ
# Assay: protein-binding microarray (RPBM); PBS, 2% BSA, 51.3 ng/ul salmon testes DNA, 50 uM zinc acetate, 200 nM TF, 25 C, 1 h; high values mean tight binding
# Settings: protein: recombinant; tags: N-terminal polyhistidine and DsRed monomer fusion (pET32a); chain copies: 2; label: CyDye5-dUTP incorporated in the synthesized complementary strand; 3' TTTTT single-stranded linker to array surface; dsDNA, one strand shown
# In short: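 The binding signal is fluorescence intensity per feature, in arbitrary units, read on an Axon 4000B scanner. Polyhistidine- and DsRed-tagged transcription factors (N-terminal fusions) from E. coli BL21-CodonPlus were purified on Ni–NTA and applied at 200 nM for 1 h at 25 °C to a double-stranded, BSA-blocked custom Agilent array in buffer with 50 µM zinc acetate.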
row,Sequence,binding signal
1,ATATGTTGCCACGCTGGACCGCCACGTAAGTCAGTCAATCCGGAGTCACCTAGTGCAG,20000 fluorescence intensity (a.u.)
2,TGCACCAGGATTGCACCATCGTCACCTGCAACTTTTGGGCCGGAGTCACCTAGTGCAG,3370 fluorescence intensity (a.u.)
3,TGGTTGATAGCTACGTCACAAACGTCACACTGATCAAAGTCGGAGTCACCTAGTGCAG,5830 fluorescence intensity (a.u.)
4,GGTTGGGACTTGGTAAGGTTGTGGTGGTGTCATATGTCTCCGGAGTCACCTAGTGCAG,4090 fluorescence intensity (a.u.)
5,CGTGACGGCTGAGTCAGCATGGGACCTGCGTGGGCCCCACCGGAGTCACCTAGTGCAG,16000 fluorescence intensity (a.u.)
6,AAGAAAGAGTGTGTGTACTGTTGCACTGTGTACCGTGTAGCGGAGTCACCTAGTGCAG,4390 fluorescence intensity (a.u.)
7,TCGATTCTGATAGCGTGCAGTACGTGTTGTTGACAAGTGACGGAGTCACCTAGTGCAG,3320 fluorescence intensity (a.u.)
8,TCTCGTTTGTTTGTCATATGTAACACGTATGAATACCGACCGGAGTCACCTAGTGCAG,6210 fluorescence intensity (a.u.)
9,TGGCGGTGGTGGTTGCGACACACTTGGCATGTCCTATATACGGAGTCACCTAGTGCAG,3710 fluorescence intensity (a.u.)
10,TGTGTGAGCTTTAGGGTGTGTTTGGATGGAGGGTTTTGGGCGGAGTCACCTAGTGCAG,4190 fluorescence intensity (a.u.)
11,TGCCTTAAGTAAACAGTTTCCACATAATACTATCTCACGCCGGAGTCACCTAGTGCAG,3290 fluorescence intensity (a.u.)
12,TCCAGTGCTATTAGTTGACAAAGCACTACAGCGTTGTGTGCGGAGTCACCTAGTGCAG,3500 fluorescence intensity (a.u.)
13,ATGCATGACAGCACACCACACATTGACACCACTGAGGCAGCGGAGTCACCTAGTGCAG,3260 fluorescence intensity (a.u.)
14,ACTTCCCCAACAACAAAGCCCAACTCCTGCGCCCTGACACCGGAGTCACCTAGTGCAG,6150 fluorescence intensity (a.u.)
15,AACTCGACTTGACCATCTGGCCCCACCTGTCAGCCTCTCACGGAGTCACCTAGTGCAG,3220 fluorescence intensity (a.u.)
16,GAAGTGGACTTATTCCAACTAAGGCTGATTCAGCAGGCCACGGAGTCACCTAGTGCAG,3940 fluorescence intensity (a.u.)
17,CCGGATATTATCCTGAGATCTATATATGCTAGATTGATTTCGGAGTCACCTAGTGCAG,10500 fluorescence intensity (a.u.)
18,TCTCTCTCTTCAGTGCCATCACCATCTCTCTCTCTCTCTCCGGAGTCACCTAGTGCAG,3520 fluorescence intensity (a.u.)
19,ATCGACTGCTGCGTGTCACGTACGCACGAAACTTGTTGATCGGAGTCACCTAGTGCAG,3950 fluorescence intensity (a.u.)
20,CGGGTTCTTCATGTGCTGACTTCATTCCATAATTCATGTTCGGAGTCACCTAGTGCAG,3580 fluorescence intensity (a.u.)
21,CGGCTGAATGTGGGCTTGGCATGCACTGCAGCGGTTGTTGCGGAGTCACCTAGTGCAG,3610 fluorescence intensity (a.u.)

# A stretch taken from the entries so far:
row,Sequence,binding signal
7,TCGATTCTGATAGCGTGCAGTACGTGTTGTTGACAAGTGACGGAGTCACCTAGTGCAG,3320 fluorescence intensity (a.u.)
8,TCTCGTTTGTTTGTCATATGTAACACGTATGAATACCGACCGGAGTCACCTAGTGCAG,6210 fluorescence intensity (a.u.)
9,TGGCGGTGGTGGTTGCGACACACTTGGCATGTCCTATATACGGAGTCACCTAGTGCAG,3710 fluorescence intensity (a.u.)
10,TGTGTGAGCTTTAGGGTGTGTTTGGATGGAGGGTTTTGGGCGGAGTCACCTAGTGCAG,4190 fluorescence intensity (a.u.)
11,TGCCTTAAGTAAACAGTTTCCACATAATACTATCTCACGCCGGAGTCACCTAGTGCAG,3290 fluorescence intensity (a.u.)
12,TCCAGTGCTATTAGTTGACAAAGCACTACAGCGTTGTGTGCGGAGTCACCTAGTGCAG,3500 fluorescence intensity (a.u.)
13,ATGCATGACAGCACACCACACATTGACACCACTGAGGCAGCGGAGTCACCTAGTGCAG,3260 fluorescence intensity (a.u.)
14,ACTTCCCCAACAACAAAGCCCAACTCCTGCGCCCTGACACCGGAGTCACCTAGTGCAG,6150 fluorescence intensity (a.u.)
15,AACTCGACTTGACCATCTGGCCCCACCTGTCAGCCTCTCACGGAGTCACCTAGTGCAG,3220 fluorescence intensity (a.u.)
16,GAAGTGGACTTATTCCAACTAAGGCTGATTCAGCAGGCCACGGAGTCACCTAGTGCAG,3940 fluorescence intensity (a.u.)
17,CCGGATATTATCCTGAGATCTATATATGCTAGATTGATTTCGGAGTCACCTAGTGCAG,10500 fluorescence intensity (a.u.)
18,TCTCTCTCTTCAGTGCCATCACCATCTCTCTCTCTCTCTCCGGAGTCACCTAGTGCAG,3520 fluorescence intensity (a.u.)

# Additional records

row,Sequence,binding signal
1,AACGGACAACATACTTCCTGATCTACTCCACCTGGCATTCCGGAGTCACCTAGTGCAG,3700 fluorescence intensity (a.u.)
2,TGTTTAGTACTGTAGCAGATTTACTGTAACGTCTCATCTGCGGAGTCACCTAGTGCAG,3170 fluorescence intensity (a.u.)
3,GGTGAATTTTACTCATTGATACTCCAGCTAGCTAACGAATCGGAGTCACCTAGTGCAG,3330 fluorescence intensity (a.u.)
4,CCGATCGACATCAATATGGATGCATGCATACATGTCATAGCGGAGTCACCTAGTGCAG,4330 fluorescence intensity (a.u.)
5,GTGCAGTCAGGTGCACTCGGTTCACGGATATTGCCTCGCTCGGAGTCACCTAGTGCAG,7880 fluorescence intensity (a.u.)
6,CTATGTCAACGTGTCATGTAGGGCTTGTTTGGTTTGGTGCCGGAGTCACCTAGTGCAG,9160 fluorescence intensity (a.u.)
7,ATGTTACTGATACTGAGAAGTGACGTTGGGTTATACATTGCGGAGTCACCTAGTGCAG,3440 fluorescence intensity (a.u.)
8,ATGTCCAAAGTTCCCAACACAGCAATGACTTTTATACAACCGGAGTCACCTAGTGCAG,3650 fluorescence intensity (a.u.)
9,ATTTCAATGCAGTGCAGCGTGGAGATGCTGAAATGGCACACGGAGTCACCTAGTGCAG,3380 fluorescence intensity (a.u.)
10,GGCGGTGTCCGCCGTGGCCGTGATGCTCGACTCGGGCGAGCGGAGTCACCTAGTGCAG,3420 fluorescence intensity (a.u.)
11,GGAAGTGCTTGTGGTCGGAAAGCTTCTAGATGACGAGGATCGGAGTCACCTAGTGCAG,3590 fluorescence intensity (a.u.)
12,TTGCCGTATCGGCTCGCCTGAAAGCGTGTCATTAGCATGACGGAGTCACCTAGTGCAG,3950 fluorescence intensity (a.u.)
13,GATAATAATGTCAAATGTCATGATCCAGCGCAGCACGAGCCGGAGTCACCTAGTGCAG,3290 fluorescence intensity (a.u.)
14,CTCCAGGAGGGGTGGAGTTGGAGCTGGAGCTGTGACAAACCGGAGTCACCTAGTGCAG,12800 fluorescence intensity (a.u.)
15,GCCTGCATTATGCATACACGTCATTCACGTATGCATGGGCCGGAGTCACCTAGTGCAG,23800 fluorescence intensity (a.u.)
16,AGCACCACATGGAATGAAGACCGGGTCAGCACCGCTACGTCGGAGTCACCTAGTGCAG,3230 fluorescence intensity (a.u.)
17,AATGTGCTCATCAGCGCCTGACACGAAGATGTGGATCATCCGGAGTCACCTAGTGCAG,3680 fluorescence intensity (a.u.)
18,TTTCTGAAGGAGCACGGGAGTGCAATTAAGTTTGTCAGCACGGAGTCACCTAGTGCAG,4090 fluorescence intensity (a.u.)
19,CTTTCAAGAGTAATTAAGAGAGGGCGATGATGTGTACATACGGAGTCACCTAGTGCAG,4690 fluorescence intensity (a.u.)
20,AACTGTTTGTTTGGTGCTTTGACAAGTAACGGCATAGTTTCGGAGTCACCTAGTGCAG,3330 fluorescence intensity (a.u.)
21,TATTTAAGTGGGGCCCACATGCCGTATCATATCCATGACCCGGAGTCACCTAGTGCAG,4080 fluorescence intensity (a.u.)
